Data from PubChem BioAssay AID1347076 (National Center for Advancing Translational Sciences (NCATS), 2019).
Out of some 400,000 compounds screened, about 13,000 (3.2%) were called active. Inconclusive means that the source gave no clear call. Such entries were picked first, then a sample of the others. Calls follow the shape of the dose curve; as a rule, active = well fitted cell-killing curve with a large enough effect; inconclusive = small, poorly fitted or top-dose-only effect, or effect the other way; inactive = flat fitted curve, though single readings scatter. Where the call is inconclusive, the potency comes from a doubtful curve fit.

Assay: qHTS assay for MDR1-selective chemotherapeutics: Primary screen using the drug-selected MDR subline cells KB-V1; also: nearly all actives have a fitted effect of over 60% in size
Conditions: KB-V1 MDR cells viability, CellTiter-Glo, 72 h; activity change, negative = cytotoxicity: at 46.1 µM (top of the series)
Summary of the method: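 Cytotoxicity via CellTiter-Glo luminescence after 72 h compound exposure at 37 degrees C. Cells: drug-selected KB-V1 line, DMEM phenol-red free plus 10% FBS. Compounds tested at multiple concentrations; normalized data fitted to concentration-effect curves.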
% is scaled to controls: 0 for no effect and ±100 for the full control effect; potency is read from the fitted curve at half-maximal effect.

SMILES	Potency	activity change, negative = cytotoxicity
N#C/C(=C/c1cccc([N+](=O)[O-])c1)c1nnc2n1CCCCC2	inconclusive: 23.1 µM [cytotoxic, single point]	–
CCc1ccc(NS(=O)(=O)c2cc3c4c(c2)CCN4C(=O)CC3)cc1	inconclusive: 23.1 µM [cytotoxic, single point]	–
Cc1cc(=O)[nH]c2c(C)cc(S(=O)(=O)N3CCCCC3)cc12	inconclusive: 29.1 µM [cytotoxic, single point]	–
CCCc1cc(C(=O)Nc2ccc(C(=O)c3ccc(C)cc3)cc2)n(C)n1	–	inactive: -11.6%
CC1(C)CC(=O)C2=C(C1)NC(=O)CC2c1cc(F)ccc1F (stereo unspecified)	–	inactive: 0%
COc1ccc(C(c2nnnn2CS(=O)(=O)c2ccc(C)cc2)N2CCN(c3ncccn3)CC2)cc1 (stereo unspecified)	inconclusive: 4.11 µM [cytotoxic, partial curve, poor fit]	–
COC(=O)c1ccc(CSc2nnc(SCc3ccc(C(=O)OC)o3)s2)o1	inconclusive: 32.6 µM [cytotoxic, partial curve, poor fit]	–
Cc1ccc2c(c1)N(C(=O)N1CCC(C(=O)Nc3cccc(F)c3)CC1)CCO2	–	inactive: -9.92%
CN1CCN(c2nc3cc(C(F)(F)F)ccc3n3cccc23)CC1	inconclusive: 10.3 µM [cytotoxic, partial curve]	–
CC1CCN(Cc2c(O)ccc3c(=O)c(-c4nc5ccccc5s4)c(N)oc23)CC1	inconclusive: 29.1 µM [rising, single point]	–
COC(=O)c1ccccc1NC(=O)NCc1ccc2c(c1)CCN2C(=O)c1ccccc1	–	inactive: 2.81%
C/C=C(/C)C(=O)O[C@@H]1c2cc3c(c(OC)c2-c2c(cc(OC)c(OC)c2OC)[C@@H](OC(C)=O)[C@@H](C)[C@H]1C)OCO3	–	inactive: 0%
COc1cccc(N2CCN(CC(=O)c3c(C)[nH]c4ccccc34)CC2)c1	inconclusive: 20.6 µM [cytotoxic, single point]	–
O=C(COc1ccccc1)Nc1cccc(-c2nc3cc4ccccc4cc3[nH]2)c1	active: 9.2 µM	–
CC1CCN(C(c2ccc(N(C)C)cc2)c2nnnn2Cc2ccc(F)cc2)CC1 (stereo unspecified)	inconclusive: 16.4 µM [cytotoxic, single point]	–
COc1ccc(N(C(C)C(=O)N2CCC(Cc3ccccc3)CC2)S(C)(=O)=O)cc1 (stereo unspecified)	active: 3.66 µM	–
O=C(Nc1ccc(Br)c(C(F)(F)F)c1)c1ccc(C(F)(F)F)cc1	inconclusive: 29.1 µM [cytotoxic, single point]	–
COc1ccc(-c2nn(C)c3sc(C(=O)NCc4ccco4)cc23)cc1OC	–	inactive: 6.96%
CC(=O)N[C@@H](Cc1c[nH]c2ccccc12)C(=O)NC1CCCc2ccccc21 (stereo partly specified)	inconclusive: 0.231 µM [rising, full curve, poor fit]	–
CCN(C1CCCCC1)S(=O)(=O)c1ccc(S(=O)(=O)N2CCN(CCC#N)CC2)cc1	–	inactive: 12.3%
O=C(c1cncc(Br)c1)N1CCN(S(=O)(=O)c2ccccc2C(F)(F)F)CC1	inconclusive: 18.4 µM [cytotoxic, single point]	–

SMILES	Potency	activity change, negative = cytotoxicity
CN(C)c1ccc(-c2noc(C3CCN(S(=O)(=O)c4cccc(Cl)c4)CC3)n2)cc1	active: 6.51 µM	–
Cc1ccc(C(=O)NC(=S)Nc2ccccc2N2CCOCC2)cc1C	–	inactive: -27.9%
Cc1cc(C)cc(NC(=O)[C@H]2O[C@@H]3OC(C)(C)O[C@@H]3[C@H]3OC(C)(C)O[C@H]32)c1	–	inactive: -1.52%
CN(CC(=O)Nc1ccccc1Cl)C(=O)c1cccc(S(=O)(=O)N2CCN(Cc3ccccc3)CC2)c1	inconclusive: 5.17 µM [cytotoxic, full curve]	–
NS(=O)(=O)c1cccc(NC(=O)CCS(=O)(=O)c2ccc(Cl)cc2)c1	inconclusive: 29.1 µM [cytotoxic, single point]	–
Cc1ccc2c(c1)N(C(=O)CCC(=O)NCc1ccccc1F)CC(C)O2 (stereo unspecified)	inconclusive: 29.1 µM [cytotoxic, single point]	–
O=C(COc1ccc(Cl)cc1)OCc1cc(=O)n2nc(C3CCCCC3)sc2n1	inconclusive: 0.82 µM [rising, full curve]	–
COc1ccccc1N(CC(=O)N(c1ccccc1)C(C)C)S(=O)(=O)c1cccs1	inconclusive: 8.2 µM [cytotoxic, partial curve]	–
CCC(Oc1ccccc1)C(=O)N1CCN(S(=O)(=O)c2ccccc2)CC1 (stereo unspecified)	inconclusive: 0.146 µM [rising, full curve]	–
CCOC(=O)C1CCN(C(=O)c2ccc3c(=O)n4c(nc3c2)CCCCC4)CC1	inconclusive: 23.1 µM [cytotoxic, single point]	–
CCOc1cccc(NC(=O)C2CC(=O)N(C)C(=Nc3ccccc3)S2)c1 (stereo unspecified)	inconclusive: 29.1 µM [cytotoxic, single point]	–
COC(=O)c1scc(-c2ccc(C)cc2)c1S(=O)(=O)N1CCN(c2cccc(Cl)c2)CC1	–	inactive: -2.51%
Cc1ccc(N(C)C(=O)CCNC(=O)Cn2cnc3ccccc3c2=O)cc1C	inconclusive: 29.1 µM [cytotoxic, single point]	–
COC(=O)[C@]1(CC(C)C)N[C@H](c2ccc(SC3CCCCC3)cc2)[C@@H]2C(=O)N(C)C(=O)[C@@H]21	inconclusive: 7.31 µM [cytotoxic, partial curve, poor fit]	–
O=C(O)CSCC(=O)N1CCN(c2ccnc3cc(Cl)ccc23)CC1	inconclusive: 25.9 µM [rising, single point]	–
Cc1ccc(N(Cc2cc3ccc(C)cc3[nH]c2=O)C(=O)c2ccco2)c(C)c1	inconclusive: 5.8 µM [cytotoxic, partial curve]	–
CCCn1c(CN2CCN(C(=O)OCC)CC2)nc2cc([N+](=O)[O-])ccc21	inconclusive: 2.91 µM [cytotoxic, full curve]	–
O=[N+]([O-])c1ccc(N/N=C\c2cccnc2)nc1	–	inactive: 16.4%
Cc1ccc(S(=O)(=O)c2nc(-c3cccs3)oc2N2CCC(C)CC2)cc1	inconclusive: 13 µM [cytotoxic, partial curve, poor fit]	–
Cc1ccc(N(CC(=O)NCC2CCCO2)S(=O)(=O)c2ccccc2)c(C)c1 (stereo unspecified)	inconclusive: 18.4 µM [cytotoxic, single point]	–

Reformatted in CSV form: part of the list above.
SMILES,Potency,"activity change, negative = cytotoxicity"
COC(=O)c1ccccc1NC(=O)NCc1ccc2c(c1)CCN2C(=O)c1ccccc1,–,inactive: 2.81%
CC(=O)N[C@@H](Cc1c[nH]c2ccccc12)C(=O)NC1CCCc2ccccc21 (stereo partly specified),"inconclusive: 0.231 µM [rising, full curve, poor fit]",–
